Legend:
[1] = Uniformity of pyrimethanil distribution over distance in tunnel, fogged vs vaporized (Petri plates, HPLC); conditions: 72 hours
[2] = Drenching vs. vaporizing treatments of apples, pyrimethanil residue on apple

In the case of Cc1cc(C)nc(Nc2ccccc2)n1 [pyrimethanil, 4,6-Dimethyl-N-phenylpyrimidin-2-amine], the “variation from the average pyrimethanil distribution” value (“variation” below) ([1]; fogged, distances of 1-2 meters) is reported as 50%-110%, the “variation” value ([1]; fogged, distances of 5-8 meters) is reported as 20%-50% and the “variation” value ([1]; vaporized, until the treatment distance was increased to 8 meters) is reported as no more than 40%. The “Apple PYR residue (ppm)” value ([2]; DRENCH, Treatment Rate 500 mg/L) was 3.2 ppm, the “Apple PYR residue (ppm)” value ([2]; DRENCH, Treatment Rate 2,000 mg/L) was 3.55 ppm and the “Apple PYR residue (ppm)” value ([2]; VAPOR, Treatment Rate 0.5 mg/L) was 3.89 ppm. The “Apple PYR residue (ppm)” value ([2]; VAPOR, Treatment Rate 2 mg/L) was 7.99 ppm.

Source: patent US10021881B2, “Vaporized administration of pesticides” (priority 2016, dated 2018)
